Data as given in US20130164309A1.
No constants are given. Whether binding was seen depends on the method and setting. Some entries that bind do so weakly or less than the wild type.

Sequences of proteins named here, by UniProt entry; tags and fusion partners are left off. A change or cut given only in a name is not applied to a line headed by its entry.
UniProt Q9NPF0: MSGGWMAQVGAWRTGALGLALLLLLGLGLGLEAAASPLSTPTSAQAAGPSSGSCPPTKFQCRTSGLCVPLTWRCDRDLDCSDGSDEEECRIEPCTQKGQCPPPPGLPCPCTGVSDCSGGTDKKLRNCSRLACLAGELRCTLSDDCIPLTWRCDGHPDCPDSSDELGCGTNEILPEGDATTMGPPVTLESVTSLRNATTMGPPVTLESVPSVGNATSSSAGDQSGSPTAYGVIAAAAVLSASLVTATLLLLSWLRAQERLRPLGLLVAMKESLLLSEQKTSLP

Columns and labels:
[1] = biological target: TCblR 32-94, 142-233-mycHis (human) (UniProt Q9NPF0); assay: TC-[57Co]Cbl binding kinetics, Scatchard analysis
[2] = biological target: TCblR 32-94, 142-233-mycHis (human) (UniProt Q9NPF0); assay: TC-[57Co]Cbl binding with unlabeled TC-Cbl, WGA-agarose, Scatchard analysis

- binding [1]: binds
- binding [2]: binds
B1: TC-Cbl (recombinant human transcobalamin saturated with cobalamin) (ligand, UniProt P20062 19-427, looked up)
chain: EMCEIPEMDSHLVEKLGQHLLPWMDRLSLEHLNPSIYVGLRLSSLQAGTKEDLYLHSLKLGYQQCLLGSAFSEDDGDCQGKPSMGQLALYLLALRANCEFVRGHKGDRLVSQLKWFLEDEKRAIGHDHKGHPHTSYYQYGLGILALCLHQKRVHDSVVDKLLYAVEPFHQGHHSVDTAAMAGLAFTCLKRSNFNPGRRQRITMAIRTVREEILKAQTPEGHFGNVYSTPLALQFLMTSPMRGAELGTACLKARVALLASLQDGAFQNALMISQLLPVLNHKTYIDLIFPDCLAPRVMLEPAAETIPQTQEIISVTLQVLSLLPPYRQSISVLAGSTVEDVLKKAHELGGFTYETQASLSGPYLTSVMGKAAGEREFWQLLRDPNTPLLQGIADYRPKDGETIELRLVSW
